No constants are given. Whether binding was seen depends on the method and setting. Binding seen in cells or lysates may run through a third protein. For part of these data: Binding can be weak; no strength is given.
How the values were obtained:
Assay in all cases: co-IP; lysates of HEK293T cells transfected with FLAG-tagged ARMC12 (full length or truncated); immunoprecipitation with anti-FLAG antibody; immunoblot for the endogenous partner
[1] = molecular target: ARMC12 without the C terminus, FLAG-tagged (ΔC-FLAG) (mouse)
[2] = molecular target: ARMC12 lacking the N terminus, FLAG-tagged (ΔN-FLAG) (mouse)
[3] = molecular target: ARMC12 without the ARM domain, FLAG-tagged (ΔARM-FLAG) (mouse)

B1: TBC1D15 (endogenous, HEK293T) (protein, UniProt Q8TC07 1-691)
chain: MAAAGVVSGKIIYEQEGVYIHSSCGKTNDQDGLISGILRVLEKDAEVIVDWRPLDDALDSSSILYARKDSSSVVEWTQAPKERGHRGSEHLNSYEAEWDMVNTVSFKRKPHTNGDAPSHRNGKSKWSFLFSLTDLKSIKQNKEGMGWSYLVFCLKDDVVLPALHFHQGDSKLLIESLEKYVVLCESPQDKRTLLVNCQNKSLSQSFENLLDEPAYGLIQAGLLDRRKLLWAIHHWKKIKKDPYTATMIGFSKVTNYIFDSLRGSDPSTHQRPPSEMADFLSDAIPGLKINQQEEPGFEVITRIDLGERPVVQRREPVSLEEWTKNIDSEGRILNVDNMKQMIFRGGLSHALRKQAWKFLLGYFPWDSTKEERTQLQKQKTDEYFRMKLQWKSISQEQEKRNSRLRDYRSLIEKDVNRTDRTNKFYEGQDNPGLILLHDILMTYCMYDFDLGYVQGMSDLLSPLLYVMENEVDAFWCFASYMDQMHQNFEEQMQGMKTQLIQLSTLLRLLDSGFCSYLESQDSGYLYFCFRWLLIRFKREFSFLDILRLWEVMWTELPCTNFHLLLCCAILESEKQQIMEKHYGFNEILKHINELSMKIDVEDILCKAEAISLQMVKCKELPQAVCEILGLQGSEVTTPDSDVGEDENVVMTPCPTSAFQSNALPTLSASGARNDSPTQIPVSSDVCRLTPA
What does the source list for B1?
binding [1]: binds; binding [2]: no binding; binding [3]: binds

Source: publication PMC8017931
